Numbering of substitutions follows the chain as printed. Results are given in words; binding and its absence hold for the method and conditions named. Some binding calls cover weakened binding; strength is not graded here. For some of these results: Where a sequence is shown, tags or fusion partners need not be part of it. One block for each binder: values may come before it.
Experiments:
[1] = target: T1, yeast β'-COP 1-304 D98A D117A (yeast (S. cerevisiae)) (UniProt P41811); assay: ITC; Microcal VP-ITC, 10°C; peptide in the syringe at ten times the molar concentration of the β'-COP construct in the cell; 50 mM HEPES (pH 7.4), 100 mM NaCl; both purified
T1 sequence: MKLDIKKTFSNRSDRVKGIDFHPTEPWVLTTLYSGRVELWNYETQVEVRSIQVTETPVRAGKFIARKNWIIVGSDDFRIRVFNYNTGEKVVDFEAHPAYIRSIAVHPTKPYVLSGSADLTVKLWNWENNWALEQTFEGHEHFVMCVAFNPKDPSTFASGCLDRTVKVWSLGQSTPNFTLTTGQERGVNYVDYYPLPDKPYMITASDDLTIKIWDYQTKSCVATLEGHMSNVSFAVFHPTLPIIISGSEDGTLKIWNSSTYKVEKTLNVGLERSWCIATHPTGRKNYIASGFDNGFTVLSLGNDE

[2] = target: T2, yeast β'-COP 1-304 R15A K17A R59A (yeast (S. cerevisiae)) (UniProt P41811); assay: as above
T2 sequence: T1 sequence with R15A, K17A, R59A, A98D, A117D

[3] = target: T3, yeast β'-COP 1-304 D206A E248A (yeast (S. cerevisiae)) (UniProt P41811); assay: as above
T3 sequence: T1 sequence with A98D, A117D, D206A, E248A

[4] = target: yeast β'-COP 1-604 (both WD-repeat domains), untagged (yeast (S. cerevisiae)) (UniProt P41811); assay: SEC-MALS; 8 mg/mL sample (100 µL) on an analytical S200 10/300 column, 50 mM Hepes pH 7.4, 100 mM NaCl, 0.4 mL/min; both purified

Binder: RQEIIKTKLL [KxKxx motif peptide from wild-type yeast Emp47 (…)]
binding [1]: no binding (tested: KD < 300 μM (so in the source))
binding [2]: no binding (tested: KD < 300 μM (so in the source))
binding [3]: no binding (tested: KD < 300 μM (so in the source))

binding [4]: binds weakly
B1: yeast β'-COP 1-604 (both WD-repeat domains), untagged (domain or fragment, UniProt P41811 1-604)
chain: MKLDIKKTFSNRSDRVKGIDFHPTEPWVLTTLYSGRVELWNYETQVEVRSIQVTETPVRAGKFIARKNWIIVGSDDFRIRVFNYNTGEKVVDFEAHPDYIRSIAVHPTKPYVLSGSDDLTVKLWNWENNWALEQTFEGHEHFVMCVAFNPKDPSTFASGCLDRTVKVWSLGQSTPNFTLTTGQERGVNYVDYYPLPDKPYMITASDDLTIKIWDYQTKSCVATLEGHMSNVSFAVFHPTLPIIISGSEDGTLKIWNSSTYKVEKTLNVGLERSWCIATHPTGRKNYIASGFDNGFTVLSLGNDEPTLSLDPVGKLVWSGGKNAAASDIFTAVIRGNEEVEQDEPLSLQTKELGSVDVFPQSLAHSPNGRFVTVVGDGEYVIYTALAWRNKAFGKCQDFVWGPDSNSYALIDETGQIKYYKNFKEVTSWSVPMHSAIDRLFSGALLGVKSDGFVYFFDWDNGTLVRRIDVNAKDVIWSDNGELVMIVNTNSNGDEASGYTLLFNKDAYLEAANNGNIDDSEGVDEAFDVLYELSESITSGKWVGDVFIFTTATNRLNYFVGGKTYNLAHYTKEMYLLGYLARDNKVYLADREVHVYGYEISLEVL

From PMC3521961, “Molecular Basis for Recognition of Dilysine Trafficking Motifs by COPI” (Developmental Cell, 2012)
